From patent US20250186411A1, “Methods of Treating Disorders Associated with Overactivation of IKKB” (The United States Government as represented by the …, priority 2023, published 2025)
At least one compound was matched to its structure with a doubt left. Some entries share one result that the patent states for a list of compounds.

What was measured:
[1] = system: KLF15 promoter (pEZX-FR03hKLF15p human podocytes); assay: KLF15 reporter high-throughput screening assay in human podocytes (firefly/renilla luciferase); type: cell-based
Experimental: Briefly, these podocytes proliferate under permissive conditions (gamma interferon at 33° C.), but differentiate under nonpermissive conditions (37° C.).
The amplified fragment contains MluI and PmeI RE sites and was subcloned into the MluI and PmeI cloning site of the pEZX-FR03 Firefly luciferase (FLuc) and Renilla luciferase (Rluc) reporter cloning vector (GeneCopoeia) to generate pEZX-FR03hKLF15p. Following verification of the sequence by restriction and μsequencing, the pEZX-FR03hKLF15p construct (which contains a puromycin resistance cassette) was transfected into human podocytes followed by selection in puromycin-containing media for 2 weeks. Surviving podocytes clones were pooled together for further analysis.
The library of compounds from the National Cancer Institute (Approved Oncology Drugs Set VI; Natural Products Set III; Diversity Set V; and Mechanistic Diversity Set II) were added to a final concentration of 1 μM in 0.5% DMSO in the low FBS cell culture media (0.2% FBS) using liquid handling system PipetMax (Gilson). After 24 hours incubation at 37° C., the Luc-Pair™ Duo-Luciferase HT Assay Kit (GeneCopoeia LF015) were used and firefly and renilla luciferase activity was determined using the SpectraMax M3 (Molecular Devices). Positive controls were all-trans retinoic acid (atRA) (1 μM) and dexamethasone (DEX) (1 μM). Negative controls were DMSO and cell-free media. […]

[2] = system: KLF15 promoter with mutation in the GRE (pEZX-FR03hKLF5p-mutant podocytes); assay: GR-mutant KLF15 reporter assay; type: cell-based, human; conditions: as compared to DMSO

`CSc1ccc(NC(=O)c2ccc(O)cc2)cc1` [BT501] was tested, and the “KLF15 reporter activity of novel analogues” value ([1]; as compared to DMSO-treated podocytes) was greater than 2 fold.

For `C[C@@H]1C[C@H]2[C@@H]3CCC4=CC(=O)C=C[C@]4(C)[C@@]3(F)[C@@H](O)C[C@]2(C)[C@@]1(O)C(=O)CO` [DEX, dexamethasone, reference compound], the KLF15-mutant reporter activity [2] was “lost” and the KLF15 activity ([1]; DEX 1 μM) was “increase in KLF15 activity”.
